Results published in patent US20110159003A1 (DOMANTIS, published 2011).
Results are given in words; binding and its absence hold for the method and conditions named. Some entries that bind do so weakly or less than the wild type.

Protein sequences, listed by entry. Tags and fused reporters are not part of them. Residues count along the entry.
UniProt P35225, residues 35-146: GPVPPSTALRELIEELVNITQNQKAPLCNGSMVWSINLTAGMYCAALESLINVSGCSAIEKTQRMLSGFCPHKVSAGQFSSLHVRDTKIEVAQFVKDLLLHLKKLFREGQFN

Target: T1, human IL-13 (human, UniProt P35225 35-146, limits assumed, biotinylated on the Biacore chip)
T1 construct: also called interleukin-13; biotinylated IL-13
Test: IL-13 Biacore (SPR)

B1: DOM9-112-210 ASTKGPS-DOM10-416 (bispecific antibody)
chain: EVQLLESGGGLVQPGGSLRLSCAASGFTFRNFGMGWVRQAPGKGLEWVSWIISSGTETYYADSVKGRFTISRDNSKNTLYLQMNSLRAEDTAVYYCAKSLGRFDYWGQGTLVTVSSASTKGPSEVQLLESGGGLVQPGGSLRLSCAASGFTFKGSEMDWVRQAPGKGLEWVSTISADGRETYYADSVKGRFTISRDNSKNTLYLQMNSLRAEDTAVYYCAKSYTSFDYWGQGTLVTVSS
  binding: binds
